This note sets out measurements from the supplement of paper PMC9233669.

This sample is rich in variants without activity.

The subject of one data set is biotinyl-Val-oxazolone. Description: self-aminoacylation, catalytic enhancement (BVO) (fold over background); higher = more active; k-Seq, kA / k0A0; sequences stand for … in GGGAAUGGAUCCACAUCUACGAAUUC…UUCACUGCAGACUUGACGAAGCUG
The method in brief: (§1)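 Each biotinyl-aminoacyl-oxazolone, at 2–1250 μM, was incubated with mutagenized RNA pools (0.43 μM) carrying a 21-nt variable region. The 50 μL reactions contained HEPES/NaCl/KCl/MgCl2/CaCl2 buffer with 5% acetonitrile at pH 6.9–7.0 and ran for 90 minutes at room temperature. After streptavidin capture, RNA was measured by qPCR in triplicate and by Illumina sequencing, and catalytic enhancement was calculated as median kA over the uncatalyzed rate from a pseudo-first-order fit of per-sequence fraction reacted.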

The subject of another data set is biotinyl-Phe-oxazolone. Description: self-aminoacylation, catalytic enhancement (BFO) (fold over background); higher = more active; k-Seq, kA / k0A0; sequences stand for … in GGGAAUGGAUCCACAUCUACGAAUUC…UUCACUGCAGACUUGACGAAGCUG
The procedure, abridged: as §1

The next data set has as its system biotinyl-Ile-oxazolone. The data set is described as follows: self-aminoacylation, catalytic enhancement (BIO) (fold over background); higher = more active; k-Seq, kA / k0A0; sequences stand for … in GGGAAUGGAUCCACAUCUACGAAUUC…UUCACUGCAGACUUGACGAAGCUG
The procedure, abridged:
as §1

The test system of the next data set is biotinyl-Met-oxazolone. The data set is described as follows: self-aminoacylation, catalytic enhancement (BMO) (fold over background); higher = more active; k-Seq, kA / k0A0; sequences stand for … in GGGAAUGGAUCCACAUCUACGAAUUC…UUCACUGCAGACUUGACGAAGCUG
The procedure, abridged:
as §1

Another data set relates to biotinyl-Trp-oxazolone. Description: self-aminoacylation, catalytic enhancement (BWO) (fold over background); higher = more active; k-Seq, kA / k0A0; sequences stand for … in GGGAAUGGAUCCACAUCUACGAAUUC…UUCACUGCAGACUUGACGAAGCUG
The method in brief:
as §1

The next data set has as its system biotinyl-Leu-oxazolone. The data set is described as follows: self-aminoacylation, catalytic enhancement (BLO) (fold over background); higher = more active; k-Seq, kA / k0A0; sequences stand for … in GGGAAUGGAUCCACAUCUACGAAUUC…UUCACUGCAGACUUGACGAAGCUG
The procedure, abridged: as §1

In the case of “AUCCACCUAAGUCAUCGGGUG [Fam2.2 aminoacylation ribozyme variant]”, the self-aminoacylation came to 7.25 with biotinyl-Val-oxazolone; 90.6 with biotinyl-Phe-oxazolone; 6.14 in the data set on biotinyl-Ile-oxazolone; 11.3 with biotinyl-Met-oxazolone; 9.42 in the data set with biotinyl-Trp-oxazolone; 14.4 in the data set on biotinyl-Leu-oxazolone.

In the case of “CUACUUCAAACAAACGGUCCG [Fam1A.1 aminoacylation ribozyme variant]”, the self-aminoacylation in the data set with biotinyl-Val-oxazolone is 0.805; with biotinyl-Phe-oxazolone, 0.523; with biotinyl-Ile-oxazolone it was 0.899; in the data set with biotinyl-Met-oxazolone, 1.28; with biotinyl-Trp-oxazolone it was 0.61; in the data set on biotinyl-Leu-oxazolone, 1.12.

In the case of “CUACUUCAAACAAUCGGCAUG [Fam1A.1 aminoacylation ribozyme variant]”, the self-aminoacylation with biotinyl-Val-oxazolone was 1.06; in the data set with biotinyl-Phe-oxazolone it was 1.1; with biotinyl-Ile-oxazolone it was 0.965; in the data set on biotinyl-Met-oxazolone, 0.773; in the data set on biotinyl-Trp-oxazolone it was 1.15; in the data set with biotinyl-Leu-oxazolone, 0.956.

With “CCACACUUCACGCAAUCUGUC [Fam1B.1 aminoacylation ribozyme variant]”, the self-aminoacylation in the data set on biotinyl-Val-oxazolone turned out to be 0.678; in the data set on biotinyl-Phe-oxazolone, 0.436; in the data set on biotinyl-Ile-oxazolone, 0.481; in the data set with biotinyl-Met-oxazolone, 0.472; with biotinyl-Trp-oxazolone, 0.464; in the data set with biotinyl-Leu-oxazolone, 0.447.

In the case of “CCAGACUUCAAUCAAUCGGUC [Fam1B.1 aminoacylation ribozyme variant]”, the self-aminoacylation with biotinyl-Val-oxazolone is 1.21; in the data set on biotinyl-Phe-oxazolone it was 34.2; with biotinyl-Ile-oxazolone, 1.19; in the data set on biotinyl-Met-oxazolone it was 1.14; in the data set with biotinyl-Trp-oxazolone it was 21.1; with biotinyl-Leu-oxazolone it was 1.76.

Turning to “AAGCUUGCUAAUAGUGGCAAG [Fam3.1 aminoacylation ribozyme variant]”, the self-aminoacylation was 0.879 with biotinyl-Val-oxazolone; 0.919 in the data set on biotinyl-Phe-oxazolone; 1.25 in the data set with biotinyl-Ile-oxazolone; 1.28 with biotinyl-Met-oxazolone; 1.03 with biotinyl-Trp-oxazolone; 0.987 in the data set on biotinyl-Leu-oxazolone.

With “AAGUUUGCUCAUAUUCGCAAG [Fam3.1 aminoacylation ribozyme variant]”, the self-aminoacylation with biotinyl-Val-oxazolone came to 0.828; with biotinyl-Phe-oxazolone, 1.05; with biotinyl-Ile-oxazolone it was 0.957; in the data set on biotinyl-Met-oxazolone, 0.912; in the data set with biotinyl-Trp-oxazolone it was 0.812; in the data set with biotinyl-Leu-oxazolone it was 0.934.

“CCACACUUCAUGUAAUCGGUC [Fam1B.1 aminoacylation ribozyme variant]”: the self-aminoacylation in the data set with biotinyl-Val-oxazolone was determined as 0.72; in the data set on biotinyl-Phe-oxazolone it was 0.62; with biotinyl-Ile-oxazolone, 0.722; with biotinyl-Met-oxazolone it was 0.506; in the data set on biotinyl-Trp-oxazolone it was 0.435; in the data set with biotinyl-Leu-oxazolone, 0.6.

As for “CCACACUUACAGCAAUCGGUC [Fam1B.1 aminoacylation ribozyme variant]”, the self-aminoacylation came out at 1.07 in the data set on biotinyl-Val-oxazolone; 1.08 with biotinyl-Phe-oxazolone; 0.991 with biotinyl-Ile-oxazolone; 0.881 with biotinyl-Met-oxazolone; 0.937 with biotinyl-Trp-oxazolone; 0.739 in the data set with biotinyl-Leu-oxazolone.

Consider “AAGUUUGCUGAUAGUCGAAAG [Fam3.1 aminoacylation ribozyme variant]”, for which the self-aminoacylation in the data set on biotinyl-Val-oxazolone amounted to 0.869; in the data set on biotinyl-Phe-oxazolone it was 1.37; with biotinyl-Ile-oxazolone, 1.14; with biotinyl-Met-oxazolone it was 1.19; in the data set on biotinyl-Trp-oxazolone, 1.22; in the data set on biotinyl-Leu-oxazolone it was 1.07.

Consider “GAGUUUGAUAAUAGUCGCAAG [Fam3.1 aminoacylation ribozyme variant]”, for which the self-aminoacylation in the data set with biotinyl-Val-oxazolone was 1.42; with biotinyl-Phe-oxazolone, 1.88; with biotinyl-Ile-oxazolone it was 1.55; in the data set on biotinyl-Met-oxazolone it was 1.28; in the data set on biotinyl-Trp-oxazolone, 1.9; with biotinyl-Leu-oxazolone, 1.08.

For “AUUACCCUUGUCAUCGAGUGG [Fam2.1 aminoacylation ribozyme variant]”, the self-aminoacylation in the data set with biotinyl-Val-oxazolone came out at 1.54; in the data set on biotinyl-Phe-oxazolone it was 1.98; in the data set on biotinyl-Ile-oxazolone, 1.25; with biotinyl-Met-oxazolone, 2.03; in the data set with biotinyl-Trp-oxazolone, 1; with biotinyl-Leu-oxazolone it was 1.85.

Take “AAGUUUGCUAACACUCGCAAG [Fam3.1 aminoacylation ribozyme variant]”: the self-aminoacylation with biotinyl-Val-oxazolone is 0.988; with biotinyl-Phe-oxazolone, 0.873; in the data set with biotinyl-Ile-oxazolone, 1.11; in the data set with biotinyl-Met-oxazolone, 0.857; in the data set with biotinyl-Trp-oxazolone it was 0.996; in the data set on biotinyl-Leu-oxazolone, 0.828.
